The assay in a line: qHTS Assay to Find Inhibitors of Chronic Active B-Cell Receptor Signaling. The conditions noted are these: ABC-DLBCL IkBa-CBG/CBR reporter, luminescence ratio (green luciferase fused to IkBa over red control in TMD8 lymphoma cells), 4 h. The gist of the method:
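TMD8 ABC-DLBCL cells carrying doxycycline-inducible green luciferase fused to IkappaBalpha plus unfused red luciferase were exposed to compounds (up to 46 uM) for 4 hrs at 37C. Activity came from the overlap-corrected green/red luminescence ratio.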

The mark [1] stands for this setting: measured here: CBR red luminescence, cell number.
[2] abbreviates: measured here: IkBa-CBG green luminescence.

We go through 61 compounds from PubChem BioAssay AID493014 (National Center for Advancing Translational Sciences (NCATS), 2011).

This is one part of the list. Shown are side measurements of this screen, not its main read-out; they come without a call. The list favours compounds with an active or inconclusive main result. The note in brackets gives the kind of curve behind each potency; many fits are weak.

Consider `CC(=O)Nc1ccc(NC2=Nc3ccccc3N3C2=Nc2c(c(C)nn2-c2ccccc2)C3c2ccccc2)cc1` (stereo not drawn), for which the AC50 under setting [1] is 0.708 µM [falling, full curve, poor fit].

Turning to `CN1CSC2=C(C#N)C(c3cccc(OCc4ccccc4)c3)CC(=O)N2C1` (stereo not drawn), the AC50 reads like this: under setting [1], 35.5 µM [rising, single point]; under setting [2], 35.5 µM [falling, single point].

Regarding `CCOC(=O)C1CCCN(c2c(NCCCN3CCCC(C)C3)c(=O)c2=O)C1` (stereo not drawn), the AC50 under setting [1] is 29.1 µM [rising, single point].

For the compound `CCc1ccc(C(=O)COC(=O)c2cc([N+](=O)[O-])ccc2NCCO)cc1`, the AC50 under setting [1] is 20.6 µM [rising, single point].

For the compound `O=C(CNC(=O)c1ccc(S(=O)(=O)N2CCCC2)cc1)N/N=C/c1ccccc1Cl`, the AC50 under setting [1] is 8.2 µM [rising, partial curve, poor fit].

For `O=C(COC(=O)c1c(F)cccc1Cl)NC(=O)Nc1ccc2c(c1)OCCO2`, under setting [1], the AC50 was 20.6 µM [rising, single point].

Turning to `CC(=O)Nc1nc2ccc(S(=O)(=O)N3CCCCC3)cc2s1`, the AC50 under setting [1] was 3.98 µM [rising, partial curve, poor fit].

Regarding `C=C(C)CNC(=S)N/N=C1\CCCCc2ccccc21`, the AC50 runs as follows: under setting [1], 18.4 µM [rising, partial curve]; under setting [2], 18.4 µM [falling, partial curve, poor fit].

Turning to `O=C(Nc1cccc2cccnc12)c1cccc2ccccc12`, the AC50 under setting [1] was 29.1 µM [rising, single point].

Consider `S=C(Nc1ccccc1)Nc1nccs1`, for which the AC50 runs as follows: under setting [1], 22.4 µM [falling, partial curve, poor fit]; under setting [2], 12.6 µM [falling, partial curve].

As for `O=C(NCCN1Cc2ccccc2C1=O)c1cccs1`, the AC50 under setting [1] is 5.17 µM [falling, full curve].

As to `O=C(O)COc1ccccc1/C=N/NC(=O)c1cc2ccccc2cc1O`, the AC50 under setting [1] is 20 µM [falling, single point].

With `CCc1ccccc1NC(=O)CN1CCN(C(=O)c2ccc(OCc3cn4ccccc4n3)cc2)CC1`, the AC50 under setting [1] was 0.103 µM [rising, full curve, poor fit].

In the case of `CC(=C/c1ccco1)/C=N/NC(=O)c1ccncc1`, under setting [1], the AC50 is 10 µM [falling, partial curve, poor fit].

With `COc1ccc(C(=O)COC(=O)c2ccccn2)c(OC)c1`, under setting [1], the AC50 was 18.4 µM [rising, partial curve, poor fit].

Consider `COC(=O)c1ccc(C2c3c(oc4ccc(Cl)cc4c3=O)C(=O)N2CCN2CCOCC2)cc1` (stereo not drawn), for which the AC50 under setting [1] was 11.2 µM [falling, partial curve].

Turning to `COc1ccc(/C=C(\C#N)c2c[nH]c3ccccc23)cc1`, the AC50 is 15.8 µM [rising, partial curve] under setting [1] and 15.8 µM [falling, partial curve] under setting [2].

With `O=C(C1CCN(C2CCN(Cc3cccc4c3OCO4)CC2)CC1)N1CCOCC1`, the AC50 under setting [1] is 7.94 µM [rising, partial curve, poor fit].

Consider `CCCOC(=O)c1ccc(NC(=O)c2cnccn2)cc1`, for which the AC50 under setting [1] is 0.224 µM [rising, full curve, poor fit].

As for `COc1ccc(-c2nnc(SCC(=O)Nc3cccnc3Cl)n2C)cc1`, under setting [1], the AC50 was 7.31 µM [rising, partial curve, poor fit].

Regarding `CCOc1ccc(-c2noc(CCCC(N)=O)n2)cc1OC`, the AC50 under setting [1] is 9.2 µM [falling, partial curve].

As for `COc1ccc(/C=N/Nc2nnc(Cc3ccccc3)c(=O)[nH]2)cc1OC`, the AC50 under setting [1] was 0.112 µM [rising, full curve, poor fit].

With `CCN(CC)C(=O)COc1ccc2oc(-c3ccco3)cc(=O)c2c1`, the AC50 under setting [1] is 1.78 µM [falling, partial curve, poor fit].

As for `CC(Oc1ccccc1)C(=O)Nc1cccc(-c2nc3ccccc3[nH]2)c1` (stereo not drawn), the AC50 under setting [1] was 1.26 µM [falling, full curve].

Take `Cc1[nH]n(-c2ccccc2)c(=O)c1/C=N/N1C(=O)c2cccc3cccc(c23)C1=O`: the AC50 runs as follows: under setting [1], 35.5 µM [rising, partial curve, poor fit]; under setting [2], 35.5 µM [falling, single point].

For `O=C1CCCC(=O)C1=Cc1c[nH]c2ccccc12`, the AC50 under setting [1] was 2.59 µM [falling, full curve, poor fit].

`Cc1sc2nc(CN3CCCCC3)nc(N3CCN(C(=O)c4ccco4)CC3)c2c1C`: under setting [1], the AC50 was 35.5 µM [falling, single point].

With `O=C(N/N=C/c1ccc(N2CCOCC2)cc1)c1ccccn1`, under setting [1], the AC50 is 35.5 µM [falling, single point].

In the case of `Cc1ccc(S(=O)(=O)CNC(=S)c2ccc3ccccc3c2)cc1`, the AC50 under setting [2] is 20.6 µM [falling, single point].

Consider `COc1cccc(/C(O)=C2/C(=O)C(=O)N(c3ccccn3)C2c2ccc(OC)c(OC)c2)c1` (stereo not drawn), for which the AC50 under setting [1] was 4.47 µM [falling, partial curve, poor fit].

Regarding `Nc1ccccc1O`, under setting [1], the AC50 was 1.64 µM [falling, full curve].

Consider `CCOc1ccc(NC(=O)Nc2ccccc2SC)cc1`, for which the AC50 under setting [1] is 7.08 µM [falling, partial curve, poor fit].

In the case of `CCOC(=O)c1c[nH]c2c(C(=O)c3ccccc3)cc(Cl)cc2c1=O`, the AC50 under setting [1] is 0.794 µM [rising, full curve, poor fit].

Consider `COCCNC(=O)COc1ccc(Br)cc1Cl`, for which, under setting [1], the AC50 is 23.1 µM [rising, single point].

With `CCN1CCN(Cc2ccc(NC(=O)c3ccc(C)c(NC(=O)c4ccno4)c3)cc2C(F)(F)F)CC1`, under setting [1], the AC50 was 0.562 µM [falling, full curve].

In the case of `c1cncc(-c2noc(C34CC5CC(CC(C5)C3)C4)n2)c1`, the AC50 under setting [1] was 1.46 µM [falling, partial curve].

For `CC1Oc2ccccc2N(CC(=O)Nc2ccccc2F)C1=O` (stereo not drawn), under setting [1], the AC50 was 0.708 µM [rising, full curve, poor fit].

Regarding `CC1CCCCC12NC(=O)N(CC(=O)N1CCN(C(=O)c3ccco3)CC1)C2=O` (stereo not drawn), under setting [1], the AC50 was 29.1 µM [rising, single point].

Regarding `Oc1ccccc1/C=N/Nc1nc2ccccc2o1`, the AC50 under setting [1] was 7.08 µM [falling, partial curve, poor fit].

As for `CCn1c(Cn2nnc(-c3ccccc3)n2)nnc1SCc1ccc(Cl)c(Cl)c1`, under setting [1], the AC50 is 2.06 µM [falling, single point].

`Cc1cc(=O)n(CCCc2ccccc2)[nH]1`: the AC50 under setting [2] is 23.1 µM [falling, partial curve, poor fit].

`O=C(O)c1ccccc1N=Nc1c(O)[nH]c2ccc([N+](=O)[O-])cc12`: the AC50 under setting [1] is 8.91 µM [falling, partial curve, poor fit].

As for `CCN(CC)S(=O)(=O)c1ccc2oc(Nc3ccc(OC)cc3OC)nc2c1`, under setting [1], the AC50 is 10 µM [rising, partial curve, poor fit].

Turning to `C[C@H](CO)N1C[C@H](C)[C@@H](CN(C)Cc2ccc(Cl)c(Cl)c2)Oc2c(NS(=O)(=O)c3cccs3)cccc2C1=O`, the AC50 under setting [1] was 23.1 µM [falling, partial curve, poor fit].

As for `COc1cccc(Nc2nc(NCCO)c3ccccc3n2)c1`, the AC50 under setting [2] was 4.11 µM [rising, partial curve, poor fit].

Regarding `Oc1ccc(/C=N/Nc2nccnc2Cl)cc1`, the half-maximal activity concentration (AC50) by setting is: under setting [1], 9.2 µM [falling, partial curve]; under setting [2], 11.6 µM [rising, partial curve, poor fit].

For the compound `CCCN(Cc1cc2ccc(C)cc2[nH]c1=O)S(=O)(=O)c1ccccc1`, under setting [1], the AC50 was 0.259 µM [falling, full curve].

With `Cc1ccc(NC(=O)c2cc(S(=O)(=O)N3CCCc4ccccc43)ccc2F)cc1F`, under setting [1], the AC50 is 11.2 µM [falling, partial curve, poor fit].

On to `CCN(Cc1ccncc1)C(=S)Nc1ccc(Cl)cc1`, for which the AC50 under setting [1] was 12.6 µM [rising, single point].

As to `Cc1ccc(C)c(N2C(=O)CN=C2Nc2ccccc2Cl)c1`, the AC50 under setting [1] was 0.00461 µM [rising, full curve, poor fit].

Regarding `O=C(Cc1ccccc1[N+](=O)[O-])Nc1ccc(S(=O)(=O)N2CCCC2)cc1`, the AC50 under setting [1] was 35.5 µM [rising, single point].

For `COc1ccc(S(=O)(=O)NCC2CCCN(C(=O)c3cccnc3)C2)cc1` (stereo not drawn), the AC50 under setting [1] is 0.708 µM [falling, full curve, poor fit].

Consider `COc1ccc(-c2noc(N3CCC(C(=O)Nc4ccc(F)cc4F)CC3)n2)cc1`, for which, under setting [1], the AC50 was 35.5 µM [falling, single point].

Regarding `O=C(CN1CCN(Cc2ccccc2)CC1)c1ccccc1`, under setting [1], the AC50 was 23.1 µM [rising, single point].

`COc1ccc(-c2cc3c(=O)n(CC(=O)N4CCN(C)CC4)ncn3n2)cc1`: the AC50 under setting [1] was 0.112 µM [rising, full curve, poor fit].

Consider `CN(C)c1ccc(N=Nc2ccccc2C(=O)OCC(=O)NC2CCCC2)cc1`, for which, under setting [1], the AC50 was 2.31 µM [rising, partial curve, poor fit].

Turning to `CCN(c1ccccc1)S(=O)(=O)c1ccc(OC)c(NC(=O)CNCCc2ccccc2)c1`, the AC50 under setting [1] was 11.2 µM [falling, partial curve, poor fit].

Take `CCC(C(=O)OCc1csc(CC(=O)Nc2ccccc2C)n1)c1ccccc1` (stereo not drawn): the AC50 under setting [1] is 11.6 µM [falling, partial curve].

Take `O=Cc1cc(N=Nc2cccc(C(=O)O)c2)ccc1O`: the AC50 was 5.62 µM [falling, full curve] under setting [1] and 14.1 µM [rising, partial curve, poor fit] under setting [2].

With `O=C(c1ccco1)N1CCN(C(=O)C2CCCN(S(=O)(=O)Cc3ccccc3)C2)CC1` (stereo not drawn), under setting [1], the AC50 was 5.8 µM [rising, single point].

On to `CCC(C)c1ccc(NC(=O)CN(C)CC(=O)Nc2cccc(OC)c2)cc1` (stereo not drawn), for which the AC50 under setting [1] is 35.5 µM [falling, single point].

Usually AC50 stands for the concentration at which the activity in the assay is half-maximal.
